No constants are given. Whether binding was seen depends on the method and setting. In cells and extracts the contact can be indirect. Binding calls can cover weak binding; strength is not graded here. Where a sequence is shown, tags or fusion partners need not be part of it.
Molecular target: T1, Flag-C9orf72 (long isoform) (human) (UniProt Q96LT7)
T1 sequence: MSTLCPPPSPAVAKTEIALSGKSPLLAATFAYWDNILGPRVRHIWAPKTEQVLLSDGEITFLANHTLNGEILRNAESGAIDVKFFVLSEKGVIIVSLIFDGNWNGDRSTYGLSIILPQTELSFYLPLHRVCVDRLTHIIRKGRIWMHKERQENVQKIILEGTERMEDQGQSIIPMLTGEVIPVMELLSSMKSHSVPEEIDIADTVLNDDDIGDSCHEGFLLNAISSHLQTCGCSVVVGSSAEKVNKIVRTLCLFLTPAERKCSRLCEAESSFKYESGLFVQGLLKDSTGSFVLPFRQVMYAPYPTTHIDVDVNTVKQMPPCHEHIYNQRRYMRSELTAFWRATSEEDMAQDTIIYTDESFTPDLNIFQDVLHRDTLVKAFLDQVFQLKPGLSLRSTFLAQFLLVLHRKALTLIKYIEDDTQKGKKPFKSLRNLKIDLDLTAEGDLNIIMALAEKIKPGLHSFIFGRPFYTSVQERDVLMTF
Assay: co-IP; HEK-293T cells co-transfected with Flag-C9orf72 and HA tagged eIF2α wild type, S51A or S51D

| binding | Substance |
| --- | --- |
| binds | HA tagged nonphosphorylatable eIF2α (S51A) |
| binds | HA tagged phosphomimetic eIF2α (S51D) |
